# According to patent publication EP0114563A1, “Cytostatically effective combination” (SCHERING AKTIENGESELLSCHAFT, priority 1982, dated 1984):
# Where two headings read alike, the source gives them in different places.
# Tested on: human leukemic cells
# Assay: Inhibition of cell proliferation (growth kinetics by cell counting) in culture
# Details: read-out: inhibition in %, based on a control free of active agent
# Description: Every second day, the culture medium of each test batch was replaced by fresh medium and active agent.
smiles,measurement,setting,value
"CCN(CC)C(=O)N[C@H]1C=C2c3cccc4[nH]cc(c34)C[C@H]2N(C)C1 [Lisuride, lisuride]",inhibition at 20 µg/mL,72 h,17%
same,inhibition at 20 µg/mL,144 h,36.5%
